The numbers were not newly measured in publication PMC6030940 (International Journal of Nanomedicine, 2018), which cites them from elsewhere.

Molecules are shown by their SMILES.

The series relates to Pgp mRNA in T84 cells. The conditions noted are these: 10 µM, 72 h; cited from earlier work.

On to `CC(C)c1c(C(=O)Nc2ccccc2)c(-c2ccccc2)c(-c2ccc(F)cc2)n1CC[C@@H](O)C[C@@H](O)CC(=O)O` [atorvastatin], for which the “increase of mRNA levels of Pgp” value is given as 4.1 fold.
